# Test results from PubChem BioAssay AID1347075 (National Center for Advancing Translational Sciences (NCATS), 2019).
# The campaign covered roughly 400,000 compounds. About 5,500 (1.4%) were called active. The inconclusive results got no clear call from the source; some entries with a clear call stand among them for comparison. Calls come from the whole dose curve; as a rule, active = well fitted cell-killing curve with a large enough effect; inconclusive = small, poorly fitted or top-dose-only effect, or effect the other way; inactive = flat fitted curve, though single readings scatter. Potencies of inconclusive entries are doubtful fits and often do not repeat.
# Assay: qHTS assay for MDR1-selective chemotherapeutics: Primary screen using the parental adenocarcinoma cell KB-3-1; note: nearly all actives have a fitted effect of over 60% in size
# Settings: KB-3-1 viability, CellTiter-Glo ATP luminescence, 72 h; activity change, negative = cytotoxic: at 46.1 µM (top of the series)
# Summary of the method: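 Parental KB-3-1 adenocarcinoma cells in phenol-red-free DMEM with 10% FBS were pin-treated with compounds at several concentrations, incubated 72 h at 37 °C, and viability read by CellTiter-Glo luminescence; concentration-effect curves were fitted after normalization.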
# % is set by controls: 0 for no effect and ±100 for the full control effect; potency is the fitted concentration of half-maximal effect.
Compound,Potency,"activity change, negative = cytotoxic"
NC(CCc1ccccc1)c1csc(Nc2cnccn2)n1 (stereo not drawn),"inconclusive: 29.1 µM [cytotoxic, single point]",
CCc1ccc(C(=O)C[n+]2cccc3cc(OC)ccc32)cc1,active: 13 µM,
CCNc1oc(-c2ccccc2F)nc1S(=O)(=O)c1ccccc1,inactive,
CCc1nc(SCC(=O)Nc2nc3c(s2)CCCC3)c2ccccc2n1,"inconclusive: 29.1 µM [cytotoxic, single point]",
COc1ccccc1CN1C[C@@H]2C[C@@H](C3=Cc4cc(Cl)ccc4OC3)N3CCC[C@@]23C1=O,"inconclusive: 23.1 µM [cytotoxic, single point]",
Cc1cccc(C)c1NC(=O)C(c1ccncc1)n1c(=O)c(-c2cc3ccccc3[nH]2)nc2ccccc21 (stereo not drawn),"inconclusive: 29.1 µM [cytotoxic, single point]",
O=C1CCN(Cc2ccccc2)S(=O)(=O)c2ccc(C(F)(F)F)cc21,"inconclusive: 18.4 µM [cytotoxic, single point]",
C[C@@H]1COc2cc(N3CCC[C@@H]3CO)ccc2S(=O)(=O)N1,inactive,
C=C(C)COc1ccc(-c2n[nH]c(C)c2-c2ccc(OC)c(OC)c2)c(O)c1,active: 6.51 µM,
Cc1ccc(NC(=O)c2cc(S(=O)(=O)NCCC3=CCCCC3)ccc2F)cc1,"inconclusive: 29.1 µM [cytotoxic, single point]",
Cc1ccc(NC(=S)N(CCCN2CCCC2)Cc2cccn2Cc2ccc(Cl)cc2)cc1Cl,inactive,
CCO[C@@H]1OC(C(=O)N2CCN(Cc3ccccc3)CC2)=C[C@H](c2ccc(C(F)(F)F)cc2)[C@H]1CCCO,"inconclusive: 23.1 µM [cytotoxic, single point]",
Cc1nnc(SCC(=O)N2c3ccccc3C(C)(c3ccc(Cl)cc3)CC2(C)C)s1 (stereo not drawn),"inconclusive: 29.1 µM [cytotoxic, single point]",
COc1ccc(-n2c(-c3ccco3)nc3c(cnn3-c3ccc(C)cc3)c2=O)cc1,"inconclusive: 29.1 µM [cytotoxic, single point]",
Cc1ccc(C(=O)NNCC(=O)Nc2ccc(Cl)cc2F)cc1,inactive,
CCOC(=O)C1=C(O)/C(=C/c2ccc(OCC(=O)O)c(OCC)c2)SC1=Nc1ccccc1,"inconclusive: 20.6 µM [rising, partial curve, poor fit]",
CC(C)NC(=O)CN(Cc1ccc(F)cc1)C(=O)CCC(=O)Nc1nccs1,"inconclusive: 0.0517 µM [rising, full curve, poor fit]",
O=C(C1=NNCC1c1ccc(Cl)cc1)C1CO1 (stereo not drawn),"inconclusive: 29.1 µM [cytotoxic, single point]",
Cc1ccc(N2CCN(C(=O)c3cn(C)c4ccc(S(=O)(=O)N(C)C5CCCCC5)cc4c3=O)CC2C)cc1 (stereo not drawn),"inconclusive: 9.2 µM [rising, partial curve]",
Cc1ccc(C(=O)Nc2nc(-c3cc(Cl)sc3Cl)cs2)cc1,inactive,
O=C(CSc1nnc(CNC(=O)c2c(F)cccc2Cl)o1)Nc1cccc(F)c1,inactive,
CC1=C(C(=O)N2CCCCCC2)CC(CC(=O)NCCCN(C)C)C(=O)N1Cc1ccc(F)cc1 (stereo not drawn),inactive,

Compound,Potency,"activity change, negative = cytotoxic"
CCOc1ccc(NS(=O)(=O)c2ccc(NC(=O)N3CCCC3)cc2)cc1,"inconclusive: 16.4 µM [cytotoxic, single point]",
CC(C)=CCN1CCN(CCC2=C(C)CCCC2(C)C)CC1CCO (stereo not drawn),"inconclusive: 32.6 µM [cytotoxic, single point]",
CC(NC(=O)c1c(O)c2ccccc2n(C)c1=O)c1ccccc1 (stereo not drawn),"inconclusive: 29.1 µM [cytotoxic, single point]",
COc1cccc(C(=O)NC2CCN(CC(=O)Nc3nccs3)CC2)c1,"inconclusive: 13 µM [rising, partial curve, poor fit]",
COc1ccc(CNC(=O)c2ccc(NC(=O)CC3SC(N4CCCC4)=NC3=O)cc2)cc1 (stereo not drawn),"inconclusive: 10.3 µM [rising, partial curve, poor fit]",
CC(=O)Oc1cccc(-c2nc3ccccc3c(=O)o2)c1,,inconclusive: 1.67%
COc1cc(NC(=O)c2ccc(-c3cccc([N+](=O)[O-])c3)o2)ccc1NC(=O)C(C)C,,inconclusive: 32.8%
CN(C)c1ccc([C@@H]2[C@@H]([N+](=O)[O-])[C@H]3C=Cc4ccccc4N3[C@H]2C(=O)c2ccc(Cl)cc2)cc1,"inconclusive: 18.4 µM [cytotoxic, partial curve, poor fit]",
CC(C)Cn1c(/C=C/c2ccc(F)cc2)nc2ccccc21,"inconclusive: 23.1 µM [cytotoxic, single point]",
c1ccc(-n2ncc3c(NCCN4CCOCC4)ncnc32)cc1,"inconclusive: 29.1 µM [rising, single point]",
CCC/C=C/c1ccc(CN2C(C(C)C)C(=O)N(Cc3cn(CCOCOC)nn3)CCS2(=O)=O)cc1 (stereo not drawn),inactive,
CNC(=O)Nc1cccc(-c2cc(-c3c(Cl)cccc3Cl)no2)c1,inactive,
Cc1ccc(C)c(N2CCN(C(c3ccccc3)c3nnnn3C(C)(C)C)CC2)c1 (stereo not drawn),"inconclusive: 20.6 µM [cytotoxic, partial curve]",
CCC(=C/c1sc2ccc3ccccc3c2[n+]1C)/C=C1\Sc2ccc3ccccc3c2N1C,active: 9.2 µM,
CN(Cc1ccc(C(F)(F)F)cc1)C(=O)c1ccc(Oc2ccccc2)cc1,"inconclusive: 9.2 µM [cytotoxic, partial curve, poor fit]",
COc1ccc(NC(=O)CSC2=Nc3ccccc3C3=NC(CC(=O)NCc4ccc(F)cc4)C(=O)N23)cc1 (stereo not drawn),inactive,
COc1ccc(CC(=O)Nc2sc3c(c2C(=O)Nc2c(C)cccc2C)CCCCC3)cc1,"inconclusive: 20.6 µM [cytotoxic, single point]",
CC(CN1CC(=O)NC(=O)C1)N1CC(=O)NC(=O)C1 (stereo not drawn),"inconclusive: 4.61 µM [rising, full curve]",
CCn1nc(C)cc1C(=O)NC1CC(C)(C)Cc2c1cnn2-c1cccc(F)c1 (stereo not drawn),inactive,
O=Cc1cn(CCC(=O)O)nc1-c1cccc(Br)c1,inactive,
C=CCc1ccccc1OCC(O)CN1CCN(CCN2C(=O)c3cccc4cccc(c34)C2=O)CC1 (stereo not drawn),"inconclusive: 29.1 µM [cytotoxic, single point]",

# One compound at a time, as listed above:
# CN(Cc1ccc(C(F)(F)F)cc1)C(=O)c1ccc(Oc2ccccc2)cc1 is entered as Potency: inconclusive: 9.2 µM [cytotoxic, partial curve, poor fit]
# CC(NC(=O)c1c(O)c2ccccc2n(C)c1=O)c1ccccc1 (stereo not drawn) is entered as Potency: inconclusive: 29.1 µM [cytotoxic, single point]
